The text below walks through data of the supplement of paper PMC12819154, “High-throughput peptide-centric local stability assay extends protein–ligand identification to membrane proteins, tissues and bacteria” (Nature Structural & Molecular Biology, 2025).

Amino acid sequences for entries named in this document (tags omitted). A change or cut given only in a name is not applied to a line headed by its entry.
UniProt Q7Z4L5: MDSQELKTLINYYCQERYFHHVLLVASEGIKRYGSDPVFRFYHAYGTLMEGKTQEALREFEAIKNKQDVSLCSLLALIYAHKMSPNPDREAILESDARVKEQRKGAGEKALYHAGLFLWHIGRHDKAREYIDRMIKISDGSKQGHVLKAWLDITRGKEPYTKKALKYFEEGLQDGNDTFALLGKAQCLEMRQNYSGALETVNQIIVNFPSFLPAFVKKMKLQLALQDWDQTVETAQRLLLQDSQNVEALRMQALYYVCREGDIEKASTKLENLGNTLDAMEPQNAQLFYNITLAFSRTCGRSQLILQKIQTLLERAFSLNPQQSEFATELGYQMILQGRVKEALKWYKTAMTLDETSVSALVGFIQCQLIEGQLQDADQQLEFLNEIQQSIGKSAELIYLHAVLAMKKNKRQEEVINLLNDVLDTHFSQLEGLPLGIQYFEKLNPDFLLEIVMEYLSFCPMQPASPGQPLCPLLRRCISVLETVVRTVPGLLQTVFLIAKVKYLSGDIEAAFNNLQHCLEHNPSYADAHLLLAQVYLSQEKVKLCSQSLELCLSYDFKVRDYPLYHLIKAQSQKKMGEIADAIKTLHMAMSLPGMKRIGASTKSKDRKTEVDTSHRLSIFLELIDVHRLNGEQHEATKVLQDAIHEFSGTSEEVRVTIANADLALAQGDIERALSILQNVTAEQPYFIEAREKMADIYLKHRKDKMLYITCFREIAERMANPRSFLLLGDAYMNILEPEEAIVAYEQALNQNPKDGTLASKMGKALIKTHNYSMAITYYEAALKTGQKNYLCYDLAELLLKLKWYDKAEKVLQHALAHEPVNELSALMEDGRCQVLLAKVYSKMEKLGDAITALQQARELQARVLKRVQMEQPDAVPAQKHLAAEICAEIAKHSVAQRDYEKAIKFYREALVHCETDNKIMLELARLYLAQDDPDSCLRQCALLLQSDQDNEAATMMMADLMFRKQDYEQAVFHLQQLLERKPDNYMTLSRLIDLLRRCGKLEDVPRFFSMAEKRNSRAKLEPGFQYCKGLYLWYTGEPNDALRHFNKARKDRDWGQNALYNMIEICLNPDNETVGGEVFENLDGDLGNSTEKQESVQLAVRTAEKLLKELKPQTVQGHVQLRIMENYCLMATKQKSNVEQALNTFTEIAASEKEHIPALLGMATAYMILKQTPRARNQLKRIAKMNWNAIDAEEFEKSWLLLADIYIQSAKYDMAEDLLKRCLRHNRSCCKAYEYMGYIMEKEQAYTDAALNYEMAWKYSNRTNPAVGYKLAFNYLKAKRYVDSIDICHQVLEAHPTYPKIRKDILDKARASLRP
UniProt Q7Z6K3: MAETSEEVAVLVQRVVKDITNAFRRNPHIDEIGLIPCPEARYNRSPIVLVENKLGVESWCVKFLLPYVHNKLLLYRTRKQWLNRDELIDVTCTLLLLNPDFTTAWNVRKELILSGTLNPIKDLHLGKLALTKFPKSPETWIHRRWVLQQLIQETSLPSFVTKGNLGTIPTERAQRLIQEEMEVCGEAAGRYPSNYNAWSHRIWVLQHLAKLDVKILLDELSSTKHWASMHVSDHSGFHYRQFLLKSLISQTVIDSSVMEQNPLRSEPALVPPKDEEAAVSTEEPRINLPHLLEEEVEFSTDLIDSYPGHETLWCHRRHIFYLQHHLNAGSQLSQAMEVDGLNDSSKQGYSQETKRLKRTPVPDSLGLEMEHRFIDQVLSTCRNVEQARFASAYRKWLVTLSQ
UniProt Q7Z7A4: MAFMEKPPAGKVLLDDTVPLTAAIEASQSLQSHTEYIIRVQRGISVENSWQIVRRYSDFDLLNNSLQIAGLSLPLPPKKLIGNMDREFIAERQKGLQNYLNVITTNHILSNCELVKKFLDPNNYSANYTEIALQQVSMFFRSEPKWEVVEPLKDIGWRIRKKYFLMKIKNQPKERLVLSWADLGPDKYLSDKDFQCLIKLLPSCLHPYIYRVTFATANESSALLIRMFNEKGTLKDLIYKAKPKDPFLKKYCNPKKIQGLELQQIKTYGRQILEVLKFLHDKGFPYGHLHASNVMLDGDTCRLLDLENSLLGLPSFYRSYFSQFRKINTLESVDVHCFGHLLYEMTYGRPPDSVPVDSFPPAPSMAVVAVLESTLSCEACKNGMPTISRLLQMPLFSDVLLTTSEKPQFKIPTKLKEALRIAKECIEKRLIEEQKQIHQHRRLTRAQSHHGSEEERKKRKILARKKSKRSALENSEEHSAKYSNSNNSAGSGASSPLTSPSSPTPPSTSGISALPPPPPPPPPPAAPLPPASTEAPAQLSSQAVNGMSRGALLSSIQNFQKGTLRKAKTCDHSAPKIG
UniProt Q6ZV73: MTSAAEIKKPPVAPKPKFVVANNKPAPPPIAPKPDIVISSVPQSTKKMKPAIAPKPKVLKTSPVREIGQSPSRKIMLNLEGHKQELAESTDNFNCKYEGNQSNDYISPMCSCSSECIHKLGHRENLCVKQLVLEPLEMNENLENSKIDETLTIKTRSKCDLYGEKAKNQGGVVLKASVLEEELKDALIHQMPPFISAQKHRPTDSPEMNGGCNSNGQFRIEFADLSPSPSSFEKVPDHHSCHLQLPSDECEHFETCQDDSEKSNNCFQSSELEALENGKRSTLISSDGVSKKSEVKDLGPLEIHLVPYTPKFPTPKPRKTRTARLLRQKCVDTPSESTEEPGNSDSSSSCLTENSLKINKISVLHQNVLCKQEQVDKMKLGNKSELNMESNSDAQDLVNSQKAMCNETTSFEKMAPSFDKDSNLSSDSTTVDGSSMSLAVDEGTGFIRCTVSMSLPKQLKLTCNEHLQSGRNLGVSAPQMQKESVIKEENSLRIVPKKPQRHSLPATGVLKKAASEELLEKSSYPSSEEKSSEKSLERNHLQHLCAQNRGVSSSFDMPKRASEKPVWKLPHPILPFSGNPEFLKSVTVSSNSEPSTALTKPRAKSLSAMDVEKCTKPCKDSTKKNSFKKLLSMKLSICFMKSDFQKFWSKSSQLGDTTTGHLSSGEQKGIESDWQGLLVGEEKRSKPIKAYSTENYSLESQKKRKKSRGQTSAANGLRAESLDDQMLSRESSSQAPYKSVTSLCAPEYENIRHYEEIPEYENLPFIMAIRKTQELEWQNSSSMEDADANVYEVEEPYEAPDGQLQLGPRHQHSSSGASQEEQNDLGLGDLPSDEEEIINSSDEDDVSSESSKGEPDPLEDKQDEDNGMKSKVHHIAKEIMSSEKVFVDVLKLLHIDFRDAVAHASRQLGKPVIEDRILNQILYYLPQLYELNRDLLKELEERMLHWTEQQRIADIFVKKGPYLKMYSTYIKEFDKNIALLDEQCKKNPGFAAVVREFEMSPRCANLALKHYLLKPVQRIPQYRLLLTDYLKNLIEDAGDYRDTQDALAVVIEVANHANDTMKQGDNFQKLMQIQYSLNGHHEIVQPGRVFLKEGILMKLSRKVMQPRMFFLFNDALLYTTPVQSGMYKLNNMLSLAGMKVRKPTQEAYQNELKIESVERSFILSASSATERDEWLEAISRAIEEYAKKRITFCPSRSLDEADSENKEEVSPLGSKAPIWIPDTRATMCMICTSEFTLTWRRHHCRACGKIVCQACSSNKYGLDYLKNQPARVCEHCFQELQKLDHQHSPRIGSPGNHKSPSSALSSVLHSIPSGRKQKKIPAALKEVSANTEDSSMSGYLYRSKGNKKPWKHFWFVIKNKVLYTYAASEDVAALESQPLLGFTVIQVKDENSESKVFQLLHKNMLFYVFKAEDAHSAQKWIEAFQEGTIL
UniProt Q6ZNE5, whole entry: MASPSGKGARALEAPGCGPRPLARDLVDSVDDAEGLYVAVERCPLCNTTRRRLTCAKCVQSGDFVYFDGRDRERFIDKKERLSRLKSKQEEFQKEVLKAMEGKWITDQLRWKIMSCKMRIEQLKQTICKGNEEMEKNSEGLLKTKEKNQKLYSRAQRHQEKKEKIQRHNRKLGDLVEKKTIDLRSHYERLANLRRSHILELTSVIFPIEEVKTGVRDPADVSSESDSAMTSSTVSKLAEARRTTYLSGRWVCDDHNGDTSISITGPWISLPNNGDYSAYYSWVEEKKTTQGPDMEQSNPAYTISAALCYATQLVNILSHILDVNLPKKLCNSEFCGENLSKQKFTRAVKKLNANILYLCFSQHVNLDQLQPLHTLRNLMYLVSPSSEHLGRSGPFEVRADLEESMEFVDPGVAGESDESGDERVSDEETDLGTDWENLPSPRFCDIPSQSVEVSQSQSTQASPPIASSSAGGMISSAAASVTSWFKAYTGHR
UniProt Q75N03: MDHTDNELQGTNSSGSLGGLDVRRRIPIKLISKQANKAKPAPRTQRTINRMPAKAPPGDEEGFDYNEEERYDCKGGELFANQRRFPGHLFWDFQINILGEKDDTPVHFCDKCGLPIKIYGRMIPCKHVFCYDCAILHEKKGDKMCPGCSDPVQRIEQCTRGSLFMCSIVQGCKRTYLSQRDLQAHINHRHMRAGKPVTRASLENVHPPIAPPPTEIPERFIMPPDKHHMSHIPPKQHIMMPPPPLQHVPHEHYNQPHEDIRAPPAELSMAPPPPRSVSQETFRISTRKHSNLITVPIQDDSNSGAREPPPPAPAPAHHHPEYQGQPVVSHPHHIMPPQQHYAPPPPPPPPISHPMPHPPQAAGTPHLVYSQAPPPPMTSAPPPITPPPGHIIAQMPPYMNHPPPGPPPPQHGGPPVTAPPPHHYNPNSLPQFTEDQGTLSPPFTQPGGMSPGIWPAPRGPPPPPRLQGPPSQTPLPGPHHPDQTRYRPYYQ
UniProt Q86UU0: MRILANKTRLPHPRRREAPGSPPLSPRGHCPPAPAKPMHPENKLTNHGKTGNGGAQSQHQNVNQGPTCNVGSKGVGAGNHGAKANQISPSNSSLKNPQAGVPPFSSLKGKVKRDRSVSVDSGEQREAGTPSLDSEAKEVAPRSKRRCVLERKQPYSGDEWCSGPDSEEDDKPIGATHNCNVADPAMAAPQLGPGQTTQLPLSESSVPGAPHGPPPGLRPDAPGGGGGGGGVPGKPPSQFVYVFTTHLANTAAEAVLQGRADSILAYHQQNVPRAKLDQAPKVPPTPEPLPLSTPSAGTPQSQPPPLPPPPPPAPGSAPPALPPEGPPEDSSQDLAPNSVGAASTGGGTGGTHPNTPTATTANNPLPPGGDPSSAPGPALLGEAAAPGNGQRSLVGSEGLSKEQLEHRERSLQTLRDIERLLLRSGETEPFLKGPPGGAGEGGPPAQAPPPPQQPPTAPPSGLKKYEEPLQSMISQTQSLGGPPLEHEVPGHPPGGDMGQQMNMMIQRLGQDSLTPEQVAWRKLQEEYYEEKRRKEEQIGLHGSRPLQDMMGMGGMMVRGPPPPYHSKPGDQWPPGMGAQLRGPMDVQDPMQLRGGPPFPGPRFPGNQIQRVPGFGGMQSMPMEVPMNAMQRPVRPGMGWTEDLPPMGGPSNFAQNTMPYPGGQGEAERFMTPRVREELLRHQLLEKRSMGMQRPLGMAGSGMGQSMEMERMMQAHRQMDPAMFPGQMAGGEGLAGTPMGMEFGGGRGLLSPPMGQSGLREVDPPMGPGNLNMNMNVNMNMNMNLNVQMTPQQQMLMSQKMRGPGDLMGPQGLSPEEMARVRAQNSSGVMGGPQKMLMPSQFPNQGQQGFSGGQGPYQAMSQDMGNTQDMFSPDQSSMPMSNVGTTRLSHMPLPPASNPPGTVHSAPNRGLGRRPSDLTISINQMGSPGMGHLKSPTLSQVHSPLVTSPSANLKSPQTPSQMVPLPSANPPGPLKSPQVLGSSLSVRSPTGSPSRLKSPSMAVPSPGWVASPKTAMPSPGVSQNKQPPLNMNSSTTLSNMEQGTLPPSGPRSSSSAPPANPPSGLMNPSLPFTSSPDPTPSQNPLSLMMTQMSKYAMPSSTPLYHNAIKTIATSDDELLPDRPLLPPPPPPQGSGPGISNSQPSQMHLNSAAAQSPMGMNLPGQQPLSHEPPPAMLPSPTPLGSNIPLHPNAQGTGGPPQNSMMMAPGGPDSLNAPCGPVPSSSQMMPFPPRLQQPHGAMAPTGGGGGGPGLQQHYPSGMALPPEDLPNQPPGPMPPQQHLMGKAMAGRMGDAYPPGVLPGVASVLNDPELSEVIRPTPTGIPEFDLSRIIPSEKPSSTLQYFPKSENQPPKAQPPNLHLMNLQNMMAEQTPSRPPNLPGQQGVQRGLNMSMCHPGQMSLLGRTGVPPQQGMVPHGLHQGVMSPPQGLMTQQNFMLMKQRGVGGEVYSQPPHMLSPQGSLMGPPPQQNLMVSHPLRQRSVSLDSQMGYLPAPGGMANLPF
UniProt Q7L3S4: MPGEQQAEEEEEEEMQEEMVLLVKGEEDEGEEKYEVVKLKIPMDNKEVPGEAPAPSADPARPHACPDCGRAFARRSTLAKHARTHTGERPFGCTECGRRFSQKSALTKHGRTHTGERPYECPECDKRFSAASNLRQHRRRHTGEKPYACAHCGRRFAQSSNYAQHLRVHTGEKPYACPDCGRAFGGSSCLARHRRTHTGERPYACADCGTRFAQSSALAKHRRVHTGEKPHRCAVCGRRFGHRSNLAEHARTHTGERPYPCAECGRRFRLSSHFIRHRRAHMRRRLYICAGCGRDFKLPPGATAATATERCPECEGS

Some of the results follow. Small differences around the control level are noise.

Compound in this test: CN[C@@H]1C[C@H]2O[C@@](C)([C@@H]1OC)n1c3ccccc3c3c4c(c5c6ccccc6n2c5c31)C(=O)NC4 [staurosporine]
Briefly: log2 fold change of tryptic peptide abundance, ligand vs vehicle (limited proteolysis) (log2 ratio); higher = more trypsin-susceptible (destabilized). The note with it: ligand concentration: 20 uM; sample: K562 cleared lysate; digestion: 4 min, 22 C (HT-PELSA RT4min, Orbitrap Astral).
Turning to “TTC21B (peptide sequence: LSIFLELIDVHR, peptide start residue: 617) (UniProt Q7Z4L5)”, the log2 fold change is 0.701.

For the target “TSEN54 (peptide sequence: WNFEQISFPNMASDSR, peptide start residue: 296) (UniProt Q7Z6J9)”, the log2 fold change was -0.198. Regarding “UBE3B (peptide sequence: VFDPALNLFK, peptide start residue: 742) (UniProt Q7Z3V4)”, the log2 fold change is -0.207. In the case of “UniProt Q7Z4H7 (peptide sequence: HVLTSHIDEPPTQNQSDLLNKK, peptide start residue: 669)”, the log2 fold change was found to be 0.28. As for “ZNF813 (peptide sequence: NSHEAPMTEIKK, peptide start residue: 107) (UniProt Q6ZN06)”, the log2 fold change is -0.384.

In the case of “KCTD20 (peptide sequence: GSCFQSGNKR, peptide start residue: 80) (UniProt Q7Z5Y7)”, the log2 fold change is -0.419. For the target “USP54 (peptide sequence: WGPARPGSHLLEQHPR, peptide start residue: 638) (UniProt Q70EL1)”, the log2 fold change was -0.543.

As to “PTAR1 (peptide sequence: ELILSGTLNPIKDLHLGK, peptide start residue: 110) (UniProt Q7Z6K3)”, the log2 fold change was -0.534.

Regarding “LARP4 (peptide sequence: HNPTVTGHQEQTYLQK, peptide start residue: 413) (UniProt Q71RC2)”, the log2 fold change is -0.108.

In the case of “UniProt Q7Z2Z2 (peptide sequence: AVLPVAESFGFADEIRK, peptide start residue: 1026)”, the log2 fold change was -0.23. In the case of “METTL3 (peptide sequence: VSQEILELLNTTTAK, peptide start residue: 242) (UniProt Q86U44)”, the log2 fold change is -0.351. Under “NET1 (peptide sequence: VTSLANLISPVR, peptide start residue: 98) (UniProt Q7Z628)” stands 0.416. Regarding “UniProt Q6ZS17 (peptide sequence: PLVQQPEPLPIQVAFR, peptide start residue: 406)”, the log2 fold change came out at 0.469. Turning to “MAEA (peptide sequence: LAQPLPMAHCANSR, peptide start residue: 324) (UniProt Q7L5Y9)”, the log2 fold change was -0.0886.

“UniProt Q86SX3 (peptide sequence: ELQALEEELR, peptide start residue: 364)”: the log2 fold change was -0.431. Under “PIK3AP1 (peptide sequence: LGIVNVDEAVLHFK, peptide start residue: 617) (UniProt Q6ZUJ8)” stands -0.464. For the target “PXK (peptide sequence: AQSHHGSEEER, peptide start residue: 446) (UniProt Q7Z7A4)”, the log2 fold change came to 0.313. In the case of “FASTKD5 (peptide sequence: QIGEIAPQR, peptide start residue: 376) (UniProt Q7L8L6)” it was 0.431; in that of “FGD6 (peptide sequence: SPSSALSSVLHSIPSGR, peptide start residue: 1299) (UniProt Q6ZV73)”, 0.541; in that of “RINL (peptide sequence: SGPLPGEVNTYQIQKIPR, peptide start residue: 87) (UniProt Q6ZS11)”, 0.458. Under “MON2 (peptide sequence: FCVQPQLLR, peptide start residue: 362) (UniProt Q7Z3U7)” stands 0.206; under “UniProt Q6ZRQ5 (peptide sequence: SPLSMLEMVK, peptide start residue: 454)”, 0.0454; under “ATG14 (peptide sequence: SHILELTSVIFPIEEVK, peptide start residue: 196) (UniProt Q6ZNE5)”, -0.258.

Regarding “CBLL1 (peptide sequence: GGELFANQR, peptide start residue: 75) (UniProt Q75N03)”, the log2 fold change was -0.173. In the case of “YRDC (peptide sequence: SEAKPLAVCLGR, peptide start residue: 113) (UniProt Q86U90)” it was 0.14; in that of “FAM160B2 (peptide sequence: QNVSPAPEGQV, peptide start residue: 733) (UniProt Q86V87)”, 0.4. Take “UniProt Q7LBC6 (peptide sequence: LVSGVLGSALTSGGPSLSAMGNGR, peptide start residue: 701)”: the log2 fold change came to 0.596. As for “NBEAL2 (peptide sequence: SHVLVGLEDGK, peptide start residue: 2700) (UniProt Q6ZNJ1)”, the log2 fold change was determined as 0.535. Turning to “BCL9L (peptide sequence: SVSVDSGEQR, peptide start residue: 116) (UniProt Q86UU0)”, the log2 fold change came out at 0.229. For the target “USP48 (peptide sequence: LFMSLLEDTLSKQK, peptide start residue: 188) (UniProt Q86UV5)”, the log2 fold change was -0.979. Take “DYM (peptide sequence: SLVENNPR, peptide start residue: 63) (UniProt Q7RTS9)”: the log2 fold change is 0.55. As for “UniProt Q7Z3J3 (peptide sequence: SALSPSKSPAK, peptide start residue: 2273)”, the log2 fold change came out at 0.161.

Regarding “UniProt Q86VZ2 (peptide sequence: AQLALSSSANQSK, peptide start residue: 11)”, the log2 fold change came out at 0.202. For the target “ZNF771 (peptide sequence: THTGERPYPCAECGR, peptide start residue: 252) (UniProt Q7L3S4)”, the log2 fold change is -0.277.

Turning to “VPS13B (peptide sequence: HQPSDLHADQAPNSHVK, peptide start residue: 3838) (UniProt Q7Z7G8)”, the log2 fold change turned out to be 0.592.

On to “UniProt Q86TM3 (peptide sequence: IQIINGESEAK, peptide start residue: 82)”, for which the log2 fold change turned out to be 0.152. As to “DHX30 (peptide sequence: VTLHIKWPK, peptide start residue: 87) (UniProt Q7L2E3)”, the log2 fold change is 0.727. Under “ATG4D (peptide sequence: RPSSEDFVFL, peptide start residue: 465) (UniProt Q86TL0)” stands 0.218.
